# According to the supplement of paper PMC8007513:
# Some of the results follow. Single values are uncertain, as repeats are few or missing.
# System: Saccharomyces cerevisiae BY4743
# Test: growth (OD600) with compound + IPBC relative to untreated control; higher = less growth inhibition
# Conditions: compound concentration: 133 uM; IPBC concentration: 0.5 ug/ml; 20 h
# Experimental: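 NMCCC compounds (133 uM) combined with IPBC (0.5 ug/ml) against Saccharomyces cerevisiae BY4743 in YPD, 96-well plates. Growth was read as OD600 at 20 h and expressed as % of the untreated control. Single pass.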
row,SMILES,growth
1,COC(=O)c1cc(OC)c(OC)cc1NS(=O)(=O)c1ccccc1C(F)(F)F + CCCCNC(=O)OCC#CI [3-iodo-2-propynyl butylcarbamate (IPBC)],98.7%
2,CCOC(=O)\C1=C(/COC(=O)C2CCN(CC2)C(=O)C3=CC=CS3)NC(=O)NC1C (stereo not drawn) + CCCCNC(=O)OCC#CI [3-iodo-2-propynyl butylcarbamate (IPBC)],109%
3,Cc1ccc2cc(CN(CC(C)C)C(=O)c3ccco3)c(O)nc2c1 + CCCCNC(=O)OCC#CI [3-iodo-2-propynyl butylcarbamate (IPBC)],110%
4,CCS\C1=N\C2=CC=CC=C2C(=O)N1C3CCOC(C)(C)C3 (stereo not drawn) + CCCCNC(=O)OCC#CI [3-iodo-2-propynyl butylcarbamate (IPBC)],100%
5,CCOC(CNC(=O)c1cc2c(s1)-c1ccccc1OC2)OCC + CCCCNC(=O)OCC#CI [3-iodo-2-propynyl butylcarbamate (IPBC)],104%
6,O=C(CCNC(=O)NCc1ccccc1)NC(c1ccccc1)c1cccs1 (stereo not drawn) + CCCCNC(=O)OCC#CI [3-iodo-2-propynyl butylcarbamate (IPBC)],110%
7,CCC(=O)Nc1nc2ccc(NC(=O)Nc3ccccc3OC)cc2s1 + CCCCNC(=O)OCC#CI [3-iodo-2-propynyl butylcarbamate (IPBC)],84.4%
8,Cc1cc(Cc2ccc(S(=O)(=O)N(C)Cc3ccccc3)cc2)c(O)nn1 + CCCCNC(=O)OCC#CI [3-iodo-2-propynyl butylcarbamate (IPBC)],92%
9,COc1ccc(S(=O)(=O)Nc2c(C)cc(C)cc2C)cc1N(C)S(C)(=O)=O + CCCCNC(=O)OCC#CI [3-iodo-2-propynyl butylcarbamate (IPBC)],92.6%
10,Cc1nc2ccc(NC(=O)CCn3cncn3)cc2s1 + CCCCNC(=O)OCC#CI [3-iodo-2-propynyl butylcarbamate (IPBC)],94.5%
11,COC(=O)c1ccc(CSc2nnc(CNC(=O)c3ccccc3F)o2)o1 + CCCCNC(=O)OCC#CI [3-iodo-2-propynyl butylcarbamate (IPBC)],94.5%
12,CCOC(=O)C1CCN(C(=O)c2cc(-c3cccnc3)on2)CC1 + CCCCNC(=O)OCC#CI [3-iodo-2-propynyl butylcarbamate (IPBC)],74.6%
13,Cc1nc2ccccc2nc1NCc1ccnc(OCC(F)(F)F)c1 + CCCCNC(=O)OCC#CI [3-iodo-2-propynyl butylcarbamate (IPBC)],22.2%
14,CS(=O)(=O)c1ccc(-c2cccc(NC(=O)C3CCCO3)c2)nn1 (stereo not drawn) + CCCCNC(=O)OCC#CI [3-iodo-2-propynyl butylcarbamate (IPBC)],100%
15,CCOC1=CC(=CC=C1O)C\2CC(=O)N\C(=C2C#N)SCC(=O)NC3=CC=C(C)C=C3C (stereo not drawn) + CCCCNC(=O)OCC#CI [3-iodo-2-propynyl butylcarbamate (IPBC)],97%
16,CN(C(=O)CSc1nnc(-c2cccnc2)o1)c1ccc(F)cc1 + CCCCNC(=O)OCC#CI [3-iodo-2-propynyl butylcarbamate (IPBC)],90%
17,CN1\C(=C/C(=N\[S]1(=O)=O)C2=CC=C(F)C=C2)C(=O)NC3=CC=C(C=C3)C(C)=O + CCCCNC(=O)OCC#CI [3-iodo-2-propynyl butylcarbamate (IPBC)],102%
18,COc1cc(NCC(=O)N2CCC(C)Sc3ccccc32)c(OC)cc1Cl (stereo not drawn) + CCCCNC(=O)OCC#CI [3-iodo-2-propynyl butylcarbamate (IPBC)],97%

# Some values from the results shown:
# Entry for COc1cc(NCC(=O)N2CCC(C)Sc3ccccc32)c(OC)cc1Cl (stereo not drawn) + CCCCNC(=O)OCC#CI [3-iodo-2-propynyl butylcarbamate (IPBC)] under growth: 97%
# Entry for CCC(=O)Nc1nc2ccc(NC(=O)Nc3ccccc3OC)cc2s1 + CCCCNC(=O)OCC#CI [3-iodo-2-propynyl butylcarbamate (IPBC)] under growth: 84.4%
